Assay results reported in patent publication EP0687685A1 (TEIJIN LIMITED, priority 1993, dated 1994).

Assay: general procedure: Fmoc solid-phase peptide synthesis
Conditions: whole synthesis

Q: For “A = Lys-Arg-Gly-Cys-Gly- B = -Ser-Cys W¹ = Thr, X = Lys, V¹ = Phe, Z = Leu, W² = Ser, Y¹ = Tyr, V² = Lys, Y² = Phe”, which isolated yield is on record?
A: 45%
